# Structures were worked out from names or drawings and are uncertain.
# Amino acid sequences for entries named in this document (tags omitted).
# UniProt P28223, whole entry: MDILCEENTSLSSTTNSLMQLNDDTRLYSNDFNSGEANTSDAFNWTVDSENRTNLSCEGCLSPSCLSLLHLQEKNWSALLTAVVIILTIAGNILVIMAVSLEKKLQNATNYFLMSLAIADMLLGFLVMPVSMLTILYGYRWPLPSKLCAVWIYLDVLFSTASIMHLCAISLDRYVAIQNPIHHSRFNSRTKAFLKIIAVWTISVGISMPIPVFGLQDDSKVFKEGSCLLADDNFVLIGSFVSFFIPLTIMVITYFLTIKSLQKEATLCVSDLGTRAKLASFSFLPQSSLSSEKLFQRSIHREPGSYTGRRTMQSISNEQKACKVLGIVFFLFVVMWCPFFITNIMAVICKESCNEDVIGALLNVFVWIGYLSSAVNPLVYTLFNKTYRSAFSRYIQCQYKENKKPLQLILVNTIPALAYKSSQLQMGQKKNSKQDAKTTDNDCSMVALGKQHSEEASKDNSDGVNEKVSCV
# Target: human recombinant 5-HT2A receptor (Homo sapiens (Human), UniProt P28223)
# Conditions: read-out: h-5-HT2A Ki
structure (smiles),measurement,value
CC(C)COc1ccc(CNC(=O)N(Cc2cc[nH]n2)C2CCN(C)CC2)cc1,Ki,10 to 100 nM
